The target in the test is T1, DRAP1 (DR1-associated corepressor), endogenous (human (endogenous in THP-1)) (UniProt Q14919).
T1 sequence: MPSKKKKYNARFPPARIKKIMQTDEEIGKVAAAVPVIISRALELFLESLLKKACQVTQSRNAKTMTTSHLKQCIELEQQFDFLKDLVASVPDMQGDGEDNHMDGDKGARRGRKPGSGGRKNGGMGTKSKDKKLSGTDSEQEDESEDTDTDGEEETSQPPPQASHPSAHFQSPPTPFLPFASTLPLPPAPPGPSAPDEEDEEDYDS
The test is described as follows: affinity purification with mass spectrometry; IP of endogenous RPL35 and DRAP1 from THP-1 macrophages infected with HIV-1 (SERINC5+), 24 h postinfection; cells cross-linked with DSS (10 μg/mL, 30 min), lysed in nondenaturing RIPA buffer, antibody-conjugated protein G beads 3 h; in-gel trypsinization, LC-MS, Mascot.

The chains behind the UniProt entries cited, without tags or fusion partners.
UniProt O60942: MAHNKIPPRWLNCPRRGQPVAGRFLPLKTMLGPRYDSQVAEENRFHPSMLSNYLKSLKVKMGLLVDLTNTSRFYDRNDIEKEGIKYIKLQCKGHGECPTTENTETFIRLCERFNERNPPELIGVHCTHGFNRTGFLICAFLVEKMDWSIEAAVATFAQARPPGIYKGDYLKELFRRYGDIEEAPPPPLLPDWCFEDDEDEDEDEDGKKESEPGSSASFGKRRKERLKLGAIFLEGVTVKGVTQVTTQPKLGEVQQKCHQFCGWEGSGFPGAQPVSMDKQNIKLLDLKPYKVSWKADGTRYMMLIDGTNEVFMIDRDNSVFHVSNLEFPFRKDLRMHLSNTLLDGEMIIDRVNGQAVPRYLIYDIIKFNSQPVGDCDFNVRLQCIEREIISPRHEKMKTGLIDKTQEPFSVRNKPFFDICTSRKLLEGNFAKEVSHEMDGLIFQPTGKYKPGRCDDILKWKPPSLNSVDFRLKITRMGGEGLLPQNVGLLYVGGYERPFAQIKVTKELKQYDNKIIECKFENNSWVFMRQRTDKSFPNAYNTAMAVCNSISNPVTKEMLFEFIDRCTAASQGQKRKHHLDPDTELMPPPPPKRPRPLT

Among the data in PMC10127607 are binding values, retold here.

Results are given in words; binding and its absence hold for the method and conditions named. Binding seen in cells or lysates may run through a third protein. These calls come from enrichment with a bait or labelling near it, and not all partners need be listed.

As to “mammalian capping enzyme (MCE1), endogenous (from UniProt O60942 1-597)”, the binding result is “binds”.
